The test concerns the target T1, Flag-FKBP51 (True-ORF-Myc-DDK (Flag)-tagged human FKBP51-transcript variant 1) (human) (UniProt Q13451).
T1 sequence: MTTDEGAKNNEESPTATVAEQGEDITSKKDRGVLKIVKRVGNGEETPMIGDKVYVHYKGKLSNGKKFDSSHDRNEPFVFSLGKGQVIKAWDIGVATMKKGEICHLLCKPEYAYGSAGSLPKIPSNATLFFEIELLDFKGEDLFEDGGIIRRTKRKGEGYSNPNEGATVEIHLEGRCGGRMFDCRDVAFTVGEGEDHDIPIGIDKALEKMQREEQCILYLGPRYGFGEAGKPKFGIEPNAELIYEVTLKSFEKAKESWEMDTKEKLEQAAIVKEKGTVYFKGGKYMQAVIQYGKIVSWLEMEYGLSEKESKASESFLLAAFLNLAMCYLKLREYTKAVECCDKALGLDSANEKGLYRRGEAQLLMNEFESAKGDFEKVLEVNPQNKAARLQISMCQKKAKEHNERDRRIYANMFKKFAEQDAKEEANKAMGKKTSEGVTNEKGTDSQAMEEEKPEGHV
Nature of the test: co-IP; A375 cells transfected with Flag-tagged FKBP51 forms (with or without HA-PHLPP, HA-K63-Ub, siPHLPP RNAs), immunoprecipitated with anti-Flag antibody, IgG or empty vector as control, immunoblot. A general note: In western blotting, separated proteins are transferred to a membrane and probed.

By UniProt entry, the sequences of proteins in these tests, tags left out.
UniProt Q8TCG2: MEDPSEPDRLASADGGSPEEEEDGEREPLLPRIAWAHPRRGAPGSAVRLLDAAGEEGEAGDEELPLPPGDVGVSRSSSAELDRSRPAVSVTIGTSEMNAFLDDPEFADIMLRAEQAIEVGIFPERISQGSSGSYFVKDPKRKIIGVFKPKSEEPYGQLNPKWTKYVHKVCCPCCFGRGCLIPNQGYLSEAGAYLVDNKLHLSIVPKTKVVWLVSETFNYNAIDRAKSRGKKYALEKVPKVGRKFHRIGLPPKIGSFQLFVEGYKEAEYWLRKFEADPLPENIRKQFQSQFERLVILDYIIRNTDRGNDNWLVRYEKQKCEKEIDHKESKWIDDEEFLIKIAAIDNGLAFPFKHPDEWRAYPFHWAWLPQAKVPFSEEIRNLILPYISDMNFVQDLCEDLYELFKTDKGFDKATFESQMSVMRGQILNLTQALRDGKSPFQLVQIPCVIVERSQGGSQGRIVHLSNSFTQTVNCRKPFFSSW
UniProt P62491: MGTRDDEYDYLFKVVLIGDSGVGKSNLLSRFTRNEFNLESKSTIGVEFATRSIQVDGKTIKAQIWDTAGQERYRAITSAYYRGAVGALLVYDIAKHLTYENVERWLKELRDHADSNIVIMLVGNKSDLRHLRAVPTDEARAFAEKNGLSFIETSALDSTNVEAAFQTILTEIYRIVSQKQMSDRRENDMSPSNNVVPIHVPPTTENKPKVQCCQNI

Results are given in words; binding and its absence hold for the method and conditions named. In cells and extracts the contact can be indirect. Some entries that bind do so weakly or less than the wild type. Where a sequence is shown, tags or fusion partners need not be part of it.

In the case of PI4K2B (from UniProt Q8TCG2 1-481), the binding entry is given as “binds”. Rab11a (from UniProt P62491 1-216): the binding result is reported as “binds”.
